This series concerns the target T1, human interleukin-6 receptor (hIL-6R) (Homo sapiens) (UniProt P08887).
T1 sequence: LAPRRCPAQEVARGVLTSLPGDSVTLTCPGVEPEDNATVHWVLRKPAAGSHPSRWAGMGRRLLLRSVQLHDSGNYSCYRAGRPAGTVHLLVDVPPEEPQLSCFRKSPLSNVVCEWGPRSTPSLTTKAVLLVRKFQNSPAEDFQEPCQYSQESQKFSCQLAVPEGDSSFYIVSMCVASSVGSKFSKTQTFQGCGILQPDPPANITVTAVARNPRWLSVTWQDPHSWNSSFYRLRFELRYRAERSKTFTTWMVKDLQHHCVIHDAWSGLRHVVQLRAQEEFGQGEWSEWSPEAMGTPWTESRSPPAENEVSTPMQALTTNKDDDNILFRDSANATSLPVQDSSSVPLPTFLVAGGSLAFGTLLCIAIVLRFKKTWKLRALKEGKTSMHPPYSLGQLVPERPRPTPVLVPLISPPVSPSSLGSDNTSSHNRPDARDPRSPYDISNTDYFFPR
Put plainly: flow cytometry (ce6 fluorescence). The conditions noted are these: 50 nM conjugate, Cell binding by flow cytometry, 45 min, serum-free medium, 37 °C (stated for the uptake in cytotoxicity assays), protein on the cell surface, label: chlorin e6. For orientation: A flow cytometer gives signals particle by particle.

The exact form of at least one protein or probe is not confirmed. At least one result comes from cells or an extract, where the contact may be indirect. No signal at the amounts used counts as a negative.

As to “GGAGGGUUGGGGUGGCGGA [shuffled-AIR-3A-ce6]”, the binding result (cells nonfluorescing, 3' C6 amino linker coupled to chlorin e6 (EDC/NHS)) is on record as “no binding”. Take GGGGAGGCUGUGGUGAGGG [AIR-3A-ce6]: the binding result (hIL-6R-lacking cells only slight nonspecific binding, 3' C6H12NH2 amino linker coupled to chlorin e6 (EDC/NHS)) was “binds”.

The record behind these values is PMC3910004.
